Assay results from PubChem BioAssay AID192 (DTP/NCI, 2004).
The list shows only some results of the screen, not a fair sample: it is rich in T/C values a quarter to a half above the control, in often repeated tests (any T/C) and in doses without a T/C. Further doses and runs are listed elsewhere. T/C gives the treated animals as a percentage of the vehicle group. Some entries give survivors of the animals treated and no T/C: the source files T/C as zero there, which appears to mark a toxic dose or a test without result, not a measured value. Some survivor counts are full or nearly so, which does not show that the dose was tolerated: survival well below the control is almost never listed, so the zero probably covers shortened survival too. Survivors were counted at the toxicity check, usually on the fifth day, unless a day is given; later deaths do not show. Schedule codes are those of the source, read here as Q, the interval in days (D) or hours (H), X, the number of doses. Some entries were tested several times; their values stand side by side, smallest first. Where survival is the endpoint, this PubChem deposit counts one and a half times the control or more as active, and values a quarter to a half above the control carry no call in these data; other NCI protocols may use other cut-offs. Some T/C values carry the count of animals alive at the toxicity check (mostly the fifth day); where none is given, no animal had died by that day. Numbered stars: 1 amine (or outer) side, 2 acyl side, 3 side chain; on linkers, the order of the positions; unused ones are H or OH. Bridge positions count the residues as written; N and C are the ends. Square brackets hold non-standard residues; d marks the D form. Peptide text beside a SMILES is read from it. I, II: the chains in the order shown. Actinocin(9to1) = Cc1c2oc3c(C)ccc(C(=O)[*:1])c3nc-2c(C(=O)[*:2])c(N)c1=O; NMeV = CN[CH](C(=O)O)C(C)C; Aze = O=C(O)[CH]1CCN1; Sar = CNCC(=O)O

System: BDF1 mice, B16 melanoma ip, median survival T/C
Assay: NCI In Vivo Anticancer Drug Screen. Data for tumor model B16 Melanoma (intraperitoneal) in B6D2F1 (BDF1) mice
Conditions: T/C endpoint: median survival time, higher T/C = longer survival
In short: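 The ratio T/C compares compound-treated mice with vehicle-treated controls, using survival or tumor size as the endpoint in a transplantable tumor model.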

[1] = dose: 25.0 mg/kg/injection, schedule: Q01DX009 (ip), vehicle: saline
[2] = dose: 50.0 mg/kg/injection, schedule: Q01DX009 (ip), vehicle: saline with Tween-80
[3] = dose: 400.0 mg/kg/injection, schedule: Q01DX009 (ip), vehicle: Klucel (hydroxypropylcellulose) (HPC)
[4] = dose: 25.0 mg/kg/injection, schedule: Q01DX009 (ip), vehicle: Klucel (hydroxypropylcellulose) (HPC)
[5] = dose: 25.0 mg/kg/injection, schedule: Q01DX009 (ip), vehicle: saline with Tween-80
[6] = dose: 50.0 mg/kg/injection, schedule: Q01DX009 (ip), vehicle: Klucel (hydroxypropylcellulose) (HPC)
[7] = dose: 100.0 mg/kg/injection, schedule: Q01DX009 (ip), vehicle: Klucel (hydroxypropylcellulose) (HPC)
[8] = dose: 100.0 mg/kg/injection, schedule: Q01DX009 (ip), vehicle: saline with Tween-80
[9] = dose: 200.0 mg/kg/injection, schedule: Q01DX009 (ip), vehicle: Klucel (hydroxypropylcellulose) (HPC)
[10] = dose: 200.0 mg/kg/injection, schedule: Q01DX009 (ip), vehicle: saline with Tween-80
[11] = dose: 12.5 mg/kg/injection, schedule: Q01DX009 (ip), vehicle: saline
[12] = dose: 12.5 mg/kg/injection, schedule: Q01DX009 (ip), vehicle: Klucel (hydroxypropylcellulose) (HPC)

C=C1C(=O)O[C@@H]2[C@H](O)[C@@H](C)[C@@H]3C=CC(=O)[C@@]3(C)[C@@H](OC(=O)/C(C)=C/C)[C@H]12
survivor count (dose: 12.0 mg/kg/injection, schedule: Q01DX009 (ip), vehicle: other): 5 of 10 | survivor count (dose: 12.0 mg/kg/injection, schedule: Q01DX009 (ip), vehicle: saline + alcohol): 10 of 10

O=[N+]([O-])c1ccc2scc3c4ccccc4nc-3c2c1
survivor count [1]: 5 of 10

CN(CCCN(C)CCC1CCCCC1)CCC1CCCCC1
survivor count [2]: 10 of 10

CCCCNC(=O)Nc1cc(C)ccc1C
survivor count [3]: 5 of 10

Nc1nc(N)c2cc(CNc3ccc(C(=O)NC(CC(=O)O)CC(=O)O)cc3)ccc2n1
survivor count (dose: 1.56 mg/kg/injection, schedule: Q01DX009 (ip), vehicle: Klucel (hydroxypropylcellulose) (HPC)): 10 of 10 | survivor count [4]: 10 of 10 | survivor count [5]: 10 of 10 | survivor count [6]: 10 of 10 | survivor count [2]: 10 of 10 | survivor count [7]: 10 of 10 | survivor count [8]: 10 of 10 | survivor count [9]: 10 of 10 | survivor count [10]: 10 of 10 | survivor count [3]: 9 of 10 and 10 of 10

CSc1nc(Cl)c(Br)c(Cl)n1
survivor count [5]: 10 of 10 | survivor count [2]: 8 of 10 | survivor count [8]: 3 of 10 | survivor count [10]: 0 of 10

C[CH2][Ge]1([CH2]C)[CH2]CC2(CCN(CCCN(C)C)C2)C[CH2]1
survivor count (dose: 4.0 mg/kg/injection, schedule: Q02DX009 (ip), vehicle: saline): 6 of 6 | survivor count (dose: 64.0 mg/kg/injection, schedule: Q02DX009 (ip), vehicle: saline): 6 of 6

C1CNCCN1
survivor count (dose: 400.0 mg/kg/injection, schedule: Q01DX009 (ip), vehicle: suspension in saline): 2 of 10

NC(=O)OCCCc1ccccc1
survivor count [9]: 9 of 10

CC(CN=Cc1ccccc1O)N=Cc1ccccc1O (stereo not given)
survivor count [9]: 10 of 10 | survivor count [3]: 10 of 10

CCCCCCCCCCCCCCCC(=O)Nc1ccn(C2OC(CO)C(O)C2O)c(=O)n1 (stereo not given)
T/C [11]: 136 % of control [9 of 10 alive] | T/C [1]: 130 % of control | survivor count (dose: 50.0 mg/kg/injection, schedule: Q01DX009 (ip), vehicle: saline): 10 of 10 | survivor count (dose: 100.0 mg/kg/injection, schedule: Q01DX009 (ip), vehicle: saline): 10 of 10 | survivor count (dose: 200.0 mg/kg/injection, schedule: Q01DX009 (ip), vehicle: saline): 10 of 10 | survivor count (dose: 400.0 mg/kg/injection, schedule: Q01DX009 (ip), vehicle: saline): 8 of 10

CCC(C)C(CC(=O)O)C(=O)O (stereo not given)
survivor count (dose: 100.0 mg/kg/injection, schedule: Q04DX003 (ip), vehicle: saline with Tween-80): 10 of 10 | survivor count (dose: 200.0 mg/kg/injection, schedule: Q04DX003 (ip), vehicle: saline with Tween-80): 10 of 10 | survivor count (dose: 400.0 mg/kg/injection, schedule: Q04DX003 (ip), vehicle: saline with Tween-80): 10 of 10

CC1C[N-]CC(C)C1.CC1C[N-]CC(C)C1.CC1C[N-]CC(C)C1.CC1C[N-]CC(C)C1.[Cl][Rh][Cl] (stereo not given)
survivor count (dose: 12.0 mg/kg/injection, schedule: Q01DX009 (ip), vehicle: saline with Tween-80): 10 of 10 | T/C (dose: 12.0 mg/kg/injection, schedule: Q01DX009 (ip), vehicle: saline): 127 % of control | survivor count (dose: 24.0 mg/kg/injection, schedule: Q01DX009 (ip), vehicle: saline with Tween-80): 7 of 10

Cc1nc2ccccc2nc1CBr
survivor count (dose: 0.2 mg/kg/injection, schedule: Q01DX009 (ip), vehicle: saline with Tween-80): 10 of 10 | survivor count [11]: 5 of 6 | survivor count [4]: 5 of 10 | survivor count [5]: 0 of 6 | survivor count [2]: 0 of 6

Cc1cc2nc(-c3ccccc3O)[nH]c2cc1C
T/C [3]: 131 % of control | survivor count [3]: 6 of 10

CCNc1nc(NCC)nc(OC)n1
T/C [8]: 125 % of control

[O-]c1cc2c3c(c1)c1cc4c(cc1c[n+]3C=C2)OCO4
survivor count (dose: 100.0 mg/kg/injection, schedule: Q01DX009 (ip), vehicle: water): 9 of 10

CCOC(=O)C(=O)C(C#N)C(=O)OCC (stereo not given)
T/C [12]: 129 % of control | survivor count [4]: 10 of 10 | survivor count [6]: 10 of 10 | survivor count [7]: 10 of 10

CCOC(=O)NC(C)(C)CN(CCO)C(=O)OCC
survivor count (dose: 200.0 mg/kg/injection, schedule: Q04DX003 (ip), vehicle: Klucel (hydroxypropylcellulose) (HPC)): 8 of 10

CC/C(=C(/CC)c1ccc(O)cc1)c1ccc(O)cc1
survivor count [2]: 6 of 6 | survivor count [8]: 4 of 6

Cc1c2oc3c(C)ccc(C(=O)NC4C(=O)NC(C(C)C)C(=O)N5CCC5C(=O)N(C)CC(=O)N(C)C(C(C)C)C(=O)OC4C)c3nc-2c(C(=O)NC2C(=O)NC(C(C)C)C(=O)N3CCC3C(=O)N(C)CC(=O)N(C)C(C(C)C)C(=O)OC2C)c(N)c1=O (stereo not given) (I: TV[Aze][Sar][NMeV] / II: TV[Aze][Sar][NMeV]; ester I:1-I:C, II:1-II:C; linker I:N-II:N via Actinocin(9to1); configuration not given here)
T/C (dose: 0.3 mg/kg/injection, schedule: Q04DX003 (ip), vehicle: saline + alcohol): 143 % of control | T/C (dose: 0.45 mg/kg/injection, schedule: Q04DX003 (ip), vehicle: saline + alcohol): 134 % of control | survivor count (dose: 0.9 mg/kg/injection, schedule: Q04DX003 (ip), vehicle: saline + alcohol): 10 of 10 | survivor count (dose: 1.2 mg/kg/injection, schedule: Q04DX003 (ip), vehicle: saline + alcohol): 9 of 10 and 10 of 10 | T/C (dose: 75.0 micrograms/kg/injection, schedule: Q01DX009 (ip), vehicle: saline + alcohol): 136 % of control | survivor count (dose: 200.0 micrograms/kg/injection, schedule: Q01DX009 (ip), vehicle: saline + alcohol): 10 of 10 | survivor count (dose: 300.0 micrograms/kg/injection, schedule: Q01DX009 (ip), vehicle: saline + alcohol): 10 of 10

Cc1ccc(C)n1-c1ccccc1
survivor count (dose: 400.0 mg/kg/injection, schedule: Q01DX009 (ip), vehicle: saline + alcohol): 10 of 10

CC(=Nc1ccccc1)C1=C(O)C(Cc2ccccc2)NC1=O (stereo not given)
survivor count [5]: 10 of 10 | survivor count [2]: 10 of 10 | survivor count [10]: 1 of 10 and 7 of 10 | survivor count (dose: 400.0 mg/kg/injection, schedule: Q01DX009 (ip), vehicle: saline with Tween-80): 0 of 10

O=C1C=CC(=O)c2c(O)c(CO)c(CO)c(O)c21
survivor count (dose: 3.13 mg/kg/injection, schedule: Q01DX009 (ip), vehicle: Klucel (hydroxypropylcellulose) (HPC)): 10 of 10 | survivor count (dose: 6.25 mg/kg/injection, schedule: Q01DX009 (ip), vehicle: Klucel (hydroxypropylcellulose) (HPC)): 9 of 10 | survivor count [12]: 0 of 10 | survivor count [4]: 0 of 10 | survivor count [6]: 0 of 10

S=C([S][Sn]([c]1ccccc1)([c]1ccccc1)[c]1ccccc1)N1CCOCC1
survivor count (dose: 12.5 mg/kg/injection, schedule: Q01DX009 (ip), vehicle: saline with Tween-80): 10 of 10 | survivor count [5]: 8 of 10 | survivor count [2]: 0 of 10 | survivor count [8]: 0 of 10 | survivor count [10]: 0 of 10
